Test results: patent publication US11554182B2, “Macrocyclic complexes of alpha-emitting radionuclides and their use in targeted radiotherapy of cancer” (CORNELL UNIVERSITY, priority 2017, dated 2023)

Assay: ^225Ac radiolabeling of macropa and DOTA, concentration dependence (radio-TLC)
Settings: for ^225Ac radiolabeling after 5 min (radio-TLC): ligand 0.59 μM, L:M ratio 1800, RT; for ^225Ac complexed after 5 min (radio-TLC): ligand 59 μM, ^225Ac 26 kBq, 0.15 M NH4OAc pH 5.5-6, RT

| Structure (SMILES) | ^225Ac radiolabeling after 5 min (radio-TLC) | ^225Ac complexed after 5 min (radio-TLC) |
| --- | --- | --- |
| O=C(O)CN1CCN(CC(=O)O)CCN(CC(=O)O)CCN(CC(=O)O)CC1 [DOTA] | failed to form a complex with ^225Ac | 10% |
| O=C(O)c1cccc(CN2CCOCCOCCN(Cc3cccc(C(=O)O)n3)CCOCCOCC2)n1 [macropa, N,N′-bis[(6-carboxy-2-pyridil)methyl]-4,13-diaza-18-crown-6] | radiolabeling was still complete | complexed all the ^225Ac |
